Molecules are shown by their SMILES. The list shows a part of the results. Further columns of the screen follow, without active or inactive calls. The list favours compounds with an active or inconclusive main result. Potencies come from curve fits of mixed quality, noted in brackets.

The assay is described as follows: qHTS Assay to Find Inhibitors of Chronic Active B-Cell Receptor Signaling. The following applies: ABC-DLBCL IkBa-CBG/CBR reporter, luminescence ratio (green luciferase fused to IkBa over red control in TMD8 lymphoma cells), 4 h. Put shortly:
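TMD8 ABC-DLBCL cells carrying doxycycline-inducible green luciferase fused to IkappaBalpha plus unfused red luciferase were exposed to compounds (up to 46 uM) for 4 hrs at 37C. Activity came from the overlap-corrected green/red luminescence ratio.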
(qHTS replaces the single test concentration by a dilution series.)

[1] abbreviates: measured here: CBR red luminescence, cell number.
[2] abbreviates: measured here: IkBa-CBG green luminescence.

For the molecule `O=C(COc1ccc(Cl)cc1Cl)c1ccc[nH]1`, under setting [1], the AC50 is 0.794 µM [rising, full curve]. The same measure, in the same setting: the result for `CN(Cc1cnn(C)c1)C(=O)C1CCC(=O)N(Cc2ccc(Cl)cc2)C1` (stereo not given) reads 35.5 µM [rising, partial curve, poor fit]; that for `NS(=O)(=O)c1cccc(NC(=O)c2cccc(-c3ccc(O)cc3)c2)c1`, 28.2 µM [falling, single point]. On the same count and under the same terms, the result for `CSc1nnc(SCc2nc3sc(C(=O)O)c(C)c3c(=O)[nH]2)s1` reads 15.8 µM [falling, partial curve, poor fit]; that for `O=Cc1cc(N=Nc2ccccc2Cl)ccc1O`, 35.5 µM [rising, single point]; that for `Cc1cccc(CCNCc2c(C(=O)O)c(C)n(-c3ccccc3)c2C)c1`, 12.6 µM [falling, partial curve, poor fit]. With `CCC(=O)N/C(=N/c1nc(C)cc(C)n1)Nc1ccc(C)cc1`, under setting [1], the AC50 was 0.794 µM [rising, full curve, poor fit].

On to `CC1CCN(S(=O)(=O)c2ccc3ncn(CC(=O)N(C)C4CCCCC4)c(=O)c3c2)CC1`, for which, under setting [1], the AC50 was 2.24 µM [falling, partial curve]. Same read-out and setting: the result for `NS(=O)(=O)c1ccc(NC2=CC(=O)C(=O)c3ccccc32)cc1` reads 17.8 µM [falling, single point]; that for `CCOc1ccc(NC(=S)NNC(=S)Nc2cccc(C(F)(F)F)c2)cc1`, 15.8 µM [rising, single point]. On the same count and under the same terms, the result for `Cc1cc(C(=O)CCC(=O)Nc2ncccc2O)c(C)s1` reads 9.2 µM [falling, partial curve]; that for `COc1cccc(CNC(=O)c2cc3ccccn3n2)c1`, 4.61 µM [falling, partial curve, poor fit]; that for `O=C(COc1ccc(Br)cc1)Nc1cccc2cccnc12`, 12.6 µM [rising, partial curve]. Regarding `Cc1ccc(NC2=NCC(=O)N2C2CCCC2)cc1`, under setting [1], the AC50 was 35.5 µM [rising, single point]. On the same count and under the same terms, the result for `C=CCn1cnc2c(nnn2-c2ccc(C)c(Cl)c2)c1=O` reads 5.62 µM [rising, full curve, poor fit]; that for `CC(Oc1ccc(Cl)cc1)C(=O)Nc1ccc(S(=O)(=O)Nc2nccs2)cc1` (stereo not given), 10 µM [falling, partial curve, poor fit].

As to `COc1cccc(NC(=O)Cc2c(C(=O)O)[nH]c3ccccc23)c1`, the AC50 under setting [1] is 6.31 µM [falling, single point]. The same measure, in the same setting: the result for `CC(/C=N\N1CCN(c2ccc(Cl)cc2)CC1)=C\c1ccccc1` reads 6.51 µM [rising, single point]; that for `COc1ccc(OC)c(CNn2c(-c3cccc(C)c3)nc3ccccc3c2=O)c1`, 1.16 µM [rising, full curve, poor fit]; that for `COc1ccccc1/C=C/C(=O)NCc1ccccn1`, 14.1 µM [falling, single point]. Turning to `CCn1c2ccccc2c2cc(NC(=O)CNCc3ccccc3OC)ccc21`, the AC50 by setting is: under setting [1], 31.6 µM [rising, single point]; under setting [2], 17.8 µM [falling, single point]. Turning to `Cc1ccc2nc(NC(=O)CSc3ncc(C(=O)Nc4ccccc4)c(=O)n3C)sc2c1`, the AC50 under setting [1] is 35.5 µM [falling, single point].

`COc1ccccc1NC(=O)Nc1cccc(C(=O)O)c1`: the AC50 under setting [1] is 35.5 µM [falling, single point]. Same read-out and setting: the result for `Cc1ccccc1NC1=C/C(=N\S(=O)(=O)c2cccs2)c2ccccc2C1=O` reads 0.146 µM [falling, full curve, poor fit]; that for `O=C(c1ccc([N+](=O)[O-])cc1)N(Cc1ccc(Cl)cc1Cl)N1C(=O)CCCC1=O`, 16.4 µM [rising, single point]. Same read-out and setting: the result for `CCCCn1c(N)c(N(CCOC)C(=O)CN(C)S(=O)(=O)c2ccc(Cl)cc2)c(=O)[nH]c1=O` reads 5.01 µM [falling, partial curve, poor fit]; that for `COc1ccc(NC(=S)NC(NC(=O)c2cccc3ccccc23)C(Cl)(Cl)Cl)c([N+](=O)[O-])c1` (stereo not given), 6.51 µM [falling, single point]. Turning to `Cc1cc(NC(=O)CN2C(=O)CC(c3ccco3)Sc3ccccc32)no1` (stereo not given), the AC50 under setting [1] is 20.6 µM [falling, single point].

Turning to `Cc1cc(S(=O)(=O)Nc2ccccc2C(=O)O)ccc1Cl`, the concentration at half-maximal activity (AC50) under setting [1] was 14.1 µM [rising, partial curve, poor fit]. Same read-out and setting: the result for `O=C(CN1CCN(Cc2ccc3c(c2)OCO3)CC1)c1c[nH]c2ccccc12` reads 22.4 µM [falling, single point]; that for `CCOC(=O)c1sc2nc3c(cc2c1N)COC(C)(CC)C3` (stereo not given), 1.26 µM [falling, full curve, poor fit]; that for `O=C(C1CCCCC1)N1CCN=C1SCc1cccc([N+](=O)[O-])c1`, 3.55 µM [falling, partial curve, poor fit].

For the molecule `Cc1ccc(Cn2c(-c3nonc3N)nc3ccccc32)cc1`, the AC50 under setting [1] was 12.6 µM [falling, partial curve]. On the same count and under the same terms, the result for `COc1cccc(-c2nc(-c3ccccn3)no2)c1OC` reads 0.366 µM [rising, full curve, poor fit]. On the same count and under the same terms, the result for `Cc1csc2c(N3CCN(C(=O)Nc4ccc(Cl)c(Cl)c4)CC3)ncnc12` reads 8.91 µM [rising, partial curve, poor fit]. `Brc1ccc(C2=Nn3c(nnc3-c3n[nH]c4c3CCC4)SC2)cc1`: the AC50 runs as follows: under setting [1], 5.8 µM [falling, full curve]; under setting [2], 4.11 µM [falling, partial curve, poor fit]. For the molecule `Cc1ccc(C(CC(=O)N2CCCC2)c2ccccc2)c(O)c1C` (stereo not given), under setting [1], the AC50 is 29.1 µM [falling, single point].

For the molecule `Cc1ccc(N(CC(O)Cn2c3ccccc3c3ccccc32)S(C)(=O)=O)cc1` (stereo not given), the AC50 under setting [1] is 29.1 µM [falling, single point].

Consider `CCOc1ccc(S(=O)(=O)NCCCl)cc1`, for which the AC50 under setting [1] is 12.6 µM [rising, single point]. The same measure, in the same setting: the result for `COc1ccc(NC(C)=O)cc1NS(=O)(=O)c1cn(C)c(=O)n(C)c1=O` reads 11.2 µM [rising, single point]; that for `N#C/C(=N\Nc1cccc(Cl)c1)C(=O)c1ccccc1`, 12.6 µM [falling, partial curve]; that for `O=C(Nc1cc(Br)ccc1O)c1cc(-c2ccc3c(c2)OCO3)on1`, 4.47 µM [falling, partial curve, poor fit]. Same read-out and setting: the result for `COc1ccccc1-c1nc(C#N)c(N2CCc3ccccc3C2)o1` reads 1.84 µM [rising, partial curve, poor fit]; that for `Oc1ccc(-c2n[nH]c(C(F)(F)F)c2-c2ccccc2)c(O)c1`, 17.8 µM [falling, single point]; that for `CCOc1ncccc1C(=O)Nc1nnc(C2CC2)s1`, 11.2 µM [falling, partial curve].

On to `C[C@]12CCC(=O)C=C1[C@H](O)C[C@@H]1[C@@H]2[C@@H](O)C[C@@]2(C)[C@H]1CC[C@]2(O)C(=O)CO`, for which the AC50 under setting [1] is 20.6 µM [rising, partial curve, poor fit].

Turning to `COc1ccc(NC(=O)Cn2nnc(C(=O)NCc3ccco3)c2N)cc1`, under setting [1], the AC50 is 31.6 µM [rising, single point].

Turning to `O=C(Nc1cccc(S(=O)(=O)C(F)F)c1)c1ccc(S(=O)(=O)N2CCOCC2)cc1`, under setting [1], the AC50 is 11.6 µM [rising, partial curve]. The same measure, in the same setting: the result for `CCc1cccc(CC)c1NC(=O)CSc1nc2ccc(N3C(=O)C4C5C=CC(C5)C4C3=O)cc2s1` (stereo not given) reads 13 µM [rising, partial curve, poor fit]; that for `COc1ccc2ccc(O)c(CN3CCN(S(=O)(=O)c4cccc(C(F)(F)F)c4)CC3)c2c1`, 4.11 µM [falling, full curve, poor fit]. Same read-out and setting: the result for `Cc1cc(C)c(OCC(O)CN2CCN(c3ccccn3)CC2)c(C)c1` (stereo not given) reads 35.5 µM [falling, single point]; that for `CC(/C=C1\SC(=S)N(CCCC(=O)Nc2ccc(C(=O)O)cc2)C1=O)=C\c1ccccc1`, 1.16 µM [falling, full curve]; that for `Fc1ccc(Cn2nnnc2C(c2ccc(Cl)cc2)N2CCSCC2)cc1` (stereo not given), 29.1 µM [falling, single point]. Regarding `Cc1ccnc(NC2c3ccccc3C(=O)N2Cc2ccccc2Cl)c1` (stereo not given), the AC50 under setting [1] is 13 µM [rising, partial curve, poor fit]. For `O=C(CCNc1n[nH]c(=O)[nH]c1=O)N/N=C\c1cccc(OCc2ccccc2)c1`, the AC50 under setting [1] was 0.708 µM [rising, full curve].

For the molecule `CC(=O)Nc1cccc(-c2csc(Nc3ccc(C)cn3)n2)c1`, the AC50 under setting [1] was 10.3 µM [falling, partial curve].

With `c1ccc(-c2nc(NCc3ccco3)c3oc4ccccc4c3n2)cc1`, under setting [1], the AC50 is 11.2 µM [falling, partial curve]. Consider `CCOc1ccccc1N(CC(=O)NC1CCCCC1)C(=O)c1nsc(Cl)c1Cl`, for which the AC50 under setting [1] was 11.2 µM [falling, partial curve]. On the same count and under the same terms, the result for `Clc1cccc(-c2ccc(-c3nc4ccccn4c3NCc3ccccc3)cc2)c1` reads 29.1 µM [falling, single point]; that for `O=C(O)c1cccnc1Nc1cccc(C(F)(F)F)c1`, 10 µM [falling, partial curve, poor fit]; that for `Cn1ncc2c(NNC(=O)c3ccc(Cl)c(Cl)c3)ncnc21`, 29.1 µM [falling, single point]. The same measure, in the same setting: the result for `O=C(Nc1cccc(NC(=O)c2ccco2)c1)c1ccc([N+](=O)[O-])cc1` reads 4.47 µM [falling, partial curve, poor fit]; that for `Cc1cc(C)n2nc(SCc3cccc(F)c3)nc2n1`, 0.0891 µM [rising, full curve, poor fit].

What is called AC50 is the concentration giving half of the maximal activity seen.
